Reference: patent publication US20240400677A1
Substitutions are numbered along the chain they refer to. Results are given in words; binding and its absence hold for the method and conditions named. One block for each binder: values may come before it.

Experiments:
[1] = molecular target: Human SIRPβ1 (plate-coated extracellular domain) (Homo sapiens); assay: ELISA, coated SIRP ECD (2 µg/mL), anti-human IgG, luminescence
[2] = molecular target: cynomolgus monkey SIRPβ1-His monomer protein (cynomolgus monkey); assay: BLI

B3: Antibody 89 (antibody, V domains shown)
VH: QVQLVQSGAEVKKPGASVKVSCKASGGTFSSYAISWVRQAPGQGLEWMGIINPSSSSTGYAQKFQGRVTMTRDTSTSTVYMELSSLRSEDTAVYYCARAGYYDSSGYYYSPYYGMDVWGQGTTVTVSS
VL: EIVMTQSPATLSVSPGERATLSCRASQSISGSYLAWYQQKPGQAPRLLIYGASTRATGIPARFSGSGSGTEFTLTISSLQSEDFAVYYCQQYGSFPFTFGPGTKVDIK
- binding [1]: no binding (tested: about 60 µg/mL)

B4: Antibody 95 (antibody, V domains shown)
VH: QVQLVQSGAEVKKPGASVKVSCKASGYTFTSYYMHWVRQAPGQGLEWMGWMNPNSGNTGYAQKFQGRVTMTRDTSTSTVYMELSSLRSEDTAVYYCARDQMYSSYGMDVWGQGTTVTVSS
VL: DIQMTQSPSSLSASVGDRVTITCRASESITNWLAWYQQKPGKAPKLLIYKASSLESGVPSRFSGSGSGTDFTLTISSLQPEDFATYYCQQSYGTPYTFGQGTKVEIK
- binding [1]: no binding (tested: about 60 µg/mL)

B5: Antibody 48 (scFv, V domains shown)
VH: B4 VH
VL: B4 VL
- binding [2]: no binding (tested: <0.02 nm at 115 s)

B12: Antibody 43 (scFv, V domains shown)
VH: QVQLVQSGAEVKKPGASVKVSCKASGGTFTSYDINWVRQAPGQGLEWMGWISAYNGHTNYAQNLQGRVTMTRDTSTSTVYMELSSLRSEDTAVYYCAREDSSWYFDLWGRGTLVTVSS
VL: B4 VL with E27Q, T30S, N31S, K50D, S53N, S56T, Y92F, G93S, Y96P
- binding [2]: no binding (tested: <0.02 nm at 115 s)

B14: Antibody 90 (antibody, V domains shown)
VH: QVQLVQSGAEVKKPGASVKVSCKASGYTFTSYYMHWVRQAPGQGLEWMGWMNPNSDNTGYAQKFQGRVTMTRDTSTSTVYMELSSLRSEDTAVYYCARVGVGYGYYYYGMDVWGQGTTVTVSS
VL: B4 VL with S26G, E27Q, T30G, N31D, W32Y, A34N, K50A, E55Q, G93S, Y96W
- binding [1]: no binding (tested: about 60 µg/mL)

B16: Antibody 8 (antibody, V domains shown)
VH: QVQLVQSGAEVKKPGASVKVSCKASGYTFTGYHIHWVRQAPGQGLEWMGWINPNSGGTNYAQKFQGRVTMTRDTSINTAYMELNRLRSDDTAVFYCARERVGYCSRPSCLDDLNIWGQGTMVTVSS
VL: DIQMTQSPSTLSASVGDRVTITCRASQSISSWLAWYQQKPGKAPKLLIYKASSLETGVPSRFSGSGSGTEFTLTISSLQPDDFATYYCQQYDSYYTFGQGTKLEIK
- binding [1]: no binding (tested: about 40 µg/mL)

B18: Antibody 51 (scFv, V domains shown)
VH: QVQLVQSGAEVKKPGASVKVSCKASGYTFTRYDINWVRQAPGQGLEWMGWMNPNSGNTGYAQKLQGRVTMTRDTSTSTVYMELSSLRSEDTAVYYCARERVGYCSSTSCLHPLDYWGQGTLVTVSS
VL: DIQMTQSPSSLSASVGDRVTITCRASQGIRNDLGWYQQKPGKAPKLLIYSASNLQSGVPSRFSGSGSGTDFTLTISSLQPEDFATYYCQQSYDVPLTFGGGTKVEIK
- binding [2]: no binding (tested: <0.02 nm at 115 s)

B19: Antibody 47 (scFv, V domains shown)
VH: QVQLVQSGAEVKKPGASVKVSCKASGYTFTTYGISWVRQAPGQGLEWMGWMDPNSGSTGYAQKFQGRVTMTRDTSTSTVYMELSSLRSEDTAVYYCARGRGNSYYYYYMDVWGKGTTVTVSS
VL: DIQMTQSPSSLSASVGDRVTITCRASQRIGSYLNWYQQKPGKAPKLLIYGASNLQSGVPSRFSGSGSGTDFTLTISSLQPEDFATYYCQQANSFPFTFGPGTKVDIK
- binding [2]: no binding (tested: <0.02 nm at 115 s)

B20: Antibody 55 (antibody, V domains shown)
VH: EVQLLESGGGLVQPGGSLRLSCAASGFTFSNSDMNWVRQAPGKGLEWVSYISSSGNTIYYADSVKGRFTISRDNSKNTLYLQMNSLRAEDTAVYYCARSNWNYPLDYYYMDVWGKGTTVTVSS
VL: DIVMTQSPLSLPVTPGEPASISCRSSQSLLHSNGYNYLDWYLQKPGQSPQLLIYAASSLQSGVPDRFSGSGSGTDFTLKISRVEAEDVGVYYCMQGTHWPPTFGQGTKVEIK
- binding [1]: no binding (tested: about 40 µg/mL)

Now from value to binder:

- binding [1]: no binding (tested: about 60 µg/mL)
B1: Antibody 83 (antibody, V domains shown)
VH: QVQLVQSGAEVKKPGASVKVSCKASGYSFSDYYMHWVRQAPGQGLEWMGWMSPNSGNTGYAQKFQGRVTMTRDTSTSTVYMELSSLRSEDTAVYYCARQREEYGHYYYGMDVWGQGTMVTVSS
VL: B3 VL with I29L, S30G, G31S, S32T, G93Y, F95S, F97P, P101Q, D106E

- binding [1]: no binding (tested: about 40 µg/mL)
B2: Antibody 54 (antibody, V domains shown)
VH: B1 VH
VL: B3 VL with I29L, S30G, G31S, S32T, G93Y, F95S, F97P, P101Q, D106E

- binding [1]: no binding (tested: about 60 µg/mL)
B6: Antibody 97 (antibody, V domains shown)
VH: QVQLVQSGAEVKKPGASVKVSCKASGHTFNNNYIHWVRQAPGQGLEWMGIINPSGGSTSYAQKFQGRVTMTRDTSTSTVYMELSSLRSEDTAVYYCARQIQDYGYYYYGMDVWGQGTTVTVSS
VL: EIVMTQSPATLSVSPGERATLSCRASQSVSKYLAWYQQKPGQAPRLLIYAISARAAGIPARFSGSGSGTEFTLTISSLQSEDFAVYYCQQYYSSPPTFGQGTKVEIK

- binding [2]: no binding (tested: <0.02 nm at 115 s)
B7: Antibody 39 (scFv, V domains shown)
VH: QVQLVQSGAEVKKPGASVKVSCKASGGTFSNYGFSWVRQAPGQGLEWMGWMSPSSGNTGYAQKFQGRVTMTRDTSTSTVYMELSSLRSEDTAVYYCARERSGSYFDYWGQGTLVTVSS
VL: B6 VL with K31S, A50G, I51T, A53T, A56T, Y92G, S94L, P96F, K103R, V104L

- binding [2]: no binding (tested: <0.02 nm at 115 s)
B8: Antibody 53 (scFv, V domains shown)
VH: B6 VH
VL: B6 VL

- binding [2]: no binding (tested: <0.02 nm at 115 s)
B9: Antibody 50 (scFv, V domains shown)
VH: QVQLVQSGAEVKKPGASVKVSCKASGYTFTGYYMHWVRQAPGQGLEWMGTINPSGGSTSYAQKFQGRVTMTRDTSTSTVYMELSSLRSEDTAVYYCVKGNGYYDLWGQGTLVTVSS
VL: DIQMTQSPSSLSASVGDRVTITCRASQSISSWLAWYQQKPGKAPKLLIYDTSNLQGGVPSRFSGSGSGTDFTLTISSLQPEDFATYYCQQYDSFPWTFGQGTKVEIK

- binding [2]: no binding (tested: <0.02 nm at 115 s)
B10: Antibody 52 (scFv, V domains shown)
VH: QVQLVQSGAEVKKPGASVKVSCKASGYTFTSYDINWVRQAPGQGLEWMGWISGYNGNTNYAQKFQGRVTMTRDTSTSTVYMELSSLRSEDTAVYYCARSFDWLLLLDYWGQGTLVTVSS
VL: B9 VL with T51A, S52T, N53T, Q55E, G56S, F94Y, V104L

- binding [1]: no binding (tested: about 60 µg/mL)
B11: Antibody 84 (antibody, V domains shown)
VH: QVQLVQSGAEVKKPGASVKVSCKASGYTFTSYYMHWVRQAPGQGLEWMGWINPNSGNAGFAQKFQGRVTMTRDTSTSTVYMELSSLRSEDTAVYYCARGPVYSYGPFDYWGQGTLVTVSS
VL: DIQMTQSPSSLSASVGDRVTITCRASQGISTYLAWYQQKPGKAPKLLIYAASTLQSGVPSRFSGSGSGTDFTLTISSLQPEDFATYYCQQSHSAPITFGQGTKVEIK

- binding [2]: no binding (tested: <0.02 nm at 115 s)
B13: Antibody 36 (scFv, V domains shown)
VH: QVQLVQSGAEVKKPGASVKVSCKASGYTFTDNYLHWVRQAPGQGLEWMGIIETSGGSTDYAQKFQGRVTMTRDTSTSTVYMELSSLRSEDTAVYYCARSFGGYSYDDAFDIWGQGTTVTVSS
VL: B11 VL with R24Q, T31N, A34N, T53S, H92Y, A94S, I96Y

- binding [2]: no binding (tested: <0.02 nm at 115 s)
B15: Antibody 46 (scFv, V domains shown)
VH: QVQLVQSGAEVKKPGASVKVSCKASGYTFSSYAISWVRQAPGQGLEWMGWMDPNSGNTGYAQKFQGRVTMTRDTSTSTVYMELSSLRSEDTAVYYCARESSYYYDSSGYYPGWYFDLWGRGTLVTVSS
VL: B11 VL with R24Q, G28D, T31N, A34N, S56T, H92Y, A94T, I96W, Q100P, E105D

- binding [1]: no binding (tested: about 60 µg/mL)
B17: Antibody 96 (antibody, V domains shown)
VH: B18 VH
VL: B18 VL

- binding [2]: no binding (tested: <0.02 nm at 115 s)
B21: Antibody 41 (scFv, V domains shown)
VH: QVQLVQSGAEVKKPGSSVKVSCKASGGTFSNYAISWVRQAPGQGLEWMGGIIPIFGSTASYAQKFQGRVTITADESTSTAYMELSSLRSEDTAVYYCARGVGDDTLTDWGQGTLVTVSS
VL: B20 VL with G96A, T97L, H98Q, W99T, P101L, Q105G
